PMC4942602
No constants are given. Whether binding was seen depends on the method and setting.

Protein sequences, listed by entry. Tags and fused reporters are not part of them. Lines headed by an entry give the natural chain unless they say otherwise; changes in a name come on top. Chains listed by the source or under a name are the forms on record and can include a tag or linker. Residues count along the entry.
AUF1-p37^ΔN (residues 77–287) (Q14103-4, form named): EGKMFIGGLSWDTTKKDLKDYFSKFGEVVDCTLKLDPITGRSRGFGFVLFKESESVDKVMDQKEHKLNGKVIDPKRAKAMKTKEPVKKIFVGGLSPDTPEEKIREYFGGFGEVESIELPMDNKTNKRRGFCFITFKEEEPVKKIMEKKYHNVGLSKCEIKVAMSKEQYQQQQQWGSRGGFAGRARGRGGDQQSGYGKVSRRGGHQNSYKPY

Molecular target: AUF1-p37^ΔN (residues 77–287) (human) (UniProt Q14103)
Assay: SEC; gel filtration after RNase A treatment (200 ug at cell lysis, 300 ug after Ni-NTA) and dialysis; HiPrep 16/60 Sephacryl S-300 HR, 25 mM Tris-HCl pH 7.5, 150 mM NaCl; without RNase A a broad peak of a multimeric form with bound E. coli RNA; both purified

AUF1-p37^ΔN (residues 77–287) (from UniProt Q14103-4 77-287) (domain or fragment)
binding: no binding
